In publication PMC7615239:
These are yes or no findings as the source states them, for the method shown. Binding seen in cells or lysates may run through a third protein. Some results given as binding are weak or reduced against the parent protein; the word gives no strength. Sequences can lack the tags named with a protein. Values belong to the molecule of their own block, whether it stands above or below them.

The chains behind the UniProt entries cited, without tags or fusion partners.
UniProt Q9FIE3: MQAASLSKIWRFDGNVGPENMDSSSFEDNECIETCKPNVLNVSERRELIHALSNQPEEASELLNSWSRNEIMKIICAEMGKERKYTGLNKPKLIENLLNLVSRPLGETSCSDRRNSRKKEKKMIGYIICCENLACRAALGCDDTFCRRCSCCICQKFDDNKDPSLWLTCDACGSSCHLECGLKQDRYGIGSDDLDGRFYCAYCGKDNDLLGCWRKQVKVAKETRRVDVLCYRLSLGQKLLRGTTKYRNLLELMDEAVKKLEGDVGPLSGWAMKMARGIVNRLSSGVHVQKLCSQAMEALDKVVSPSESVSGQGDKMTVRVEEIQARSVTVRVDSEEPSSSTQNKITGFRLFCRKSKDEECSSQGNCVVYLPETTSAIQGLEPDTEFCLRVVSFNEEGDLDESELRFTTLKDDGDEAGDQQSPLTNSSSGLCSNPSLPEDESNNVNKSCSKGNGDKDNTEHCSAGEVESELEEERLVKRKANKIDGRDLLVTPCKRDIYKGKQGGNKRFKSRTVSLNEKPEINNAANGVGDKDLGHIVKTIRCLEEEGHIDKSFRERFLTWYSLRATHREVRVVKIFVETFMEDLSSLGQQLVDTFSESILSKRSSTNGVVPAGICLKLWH
UniProt O22467: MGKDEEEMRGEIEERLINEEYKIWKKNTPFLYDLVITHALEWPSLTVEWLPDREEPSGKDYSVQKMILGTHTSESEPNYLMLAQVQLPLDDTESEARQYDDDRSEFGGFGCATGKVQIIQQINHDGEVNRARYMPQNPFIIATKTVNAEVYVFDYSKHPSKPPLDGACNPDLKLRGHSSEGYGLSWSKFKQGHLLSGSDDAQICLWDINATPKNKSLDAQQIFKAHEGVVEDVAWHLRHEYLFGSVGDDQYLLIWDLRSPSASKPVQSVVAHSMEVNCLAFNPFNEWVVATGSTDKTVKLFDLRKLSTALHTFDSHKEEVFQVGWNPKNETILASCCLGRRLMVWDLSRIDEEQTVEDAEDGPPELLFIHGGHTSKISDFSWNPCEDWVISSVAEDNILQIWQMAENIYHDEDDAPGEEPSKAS

Tests used:
[1] = biological target: T1, GFP-VAL1 (Arabidopsis) (UniProt Q8W4L5); assay: co-IP; GFP-VAL1 (wt or internal deletions) coexpressed with FLAG-dsRed-tagged VEL proteins (wt or mutant) in HEK293T; GFP-trap; anti-FLAG blot
T1 sequence: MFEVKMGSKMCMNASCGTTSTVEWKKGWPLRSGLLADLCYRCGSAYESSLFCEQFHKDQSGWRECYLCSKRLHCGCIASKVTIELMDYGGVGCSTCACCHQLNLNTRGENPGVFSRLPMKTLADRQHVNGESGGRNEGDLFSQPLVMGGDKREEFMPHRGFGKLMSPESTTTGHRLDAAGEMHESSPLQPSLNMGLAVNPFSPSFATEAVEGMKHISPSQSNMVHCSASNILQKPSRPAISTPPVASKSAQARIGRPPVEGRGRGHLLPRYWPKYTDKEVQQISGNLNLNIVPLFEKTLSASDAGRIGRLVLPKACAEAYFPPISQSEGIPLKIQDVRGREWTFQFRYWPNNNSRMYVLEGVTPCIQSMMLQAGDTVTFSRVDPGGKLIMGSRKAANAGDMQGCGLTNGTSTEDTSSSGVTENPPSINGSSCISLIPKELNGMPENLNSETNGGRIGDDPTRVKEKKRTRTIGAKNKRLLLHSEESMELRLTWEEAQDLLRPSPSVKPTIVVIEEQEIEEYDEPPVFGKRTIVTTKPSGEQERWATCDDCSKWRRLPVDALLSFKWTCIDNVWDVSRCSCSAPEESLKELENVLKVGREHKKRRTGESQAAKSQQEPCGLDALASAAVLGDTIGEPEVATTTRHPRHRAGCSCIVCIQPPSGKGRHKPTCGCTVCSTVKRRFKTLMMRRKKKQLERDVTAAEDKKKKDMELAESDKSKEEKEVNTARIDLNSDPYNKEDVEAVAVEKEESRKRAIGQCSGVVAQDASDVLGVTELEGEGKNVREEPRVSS

[2] = biological target: T2, GFP-tagged VRN2 (Arabidopsis) (UniProt Q8W5B1); assay: co-IP; GFP-tagged VRN2 coexpressed with SWN, MSI1 and FIE, without or with VRN5, in HEK293T (Supplemental Fig. S1F,G)
T2 sequence: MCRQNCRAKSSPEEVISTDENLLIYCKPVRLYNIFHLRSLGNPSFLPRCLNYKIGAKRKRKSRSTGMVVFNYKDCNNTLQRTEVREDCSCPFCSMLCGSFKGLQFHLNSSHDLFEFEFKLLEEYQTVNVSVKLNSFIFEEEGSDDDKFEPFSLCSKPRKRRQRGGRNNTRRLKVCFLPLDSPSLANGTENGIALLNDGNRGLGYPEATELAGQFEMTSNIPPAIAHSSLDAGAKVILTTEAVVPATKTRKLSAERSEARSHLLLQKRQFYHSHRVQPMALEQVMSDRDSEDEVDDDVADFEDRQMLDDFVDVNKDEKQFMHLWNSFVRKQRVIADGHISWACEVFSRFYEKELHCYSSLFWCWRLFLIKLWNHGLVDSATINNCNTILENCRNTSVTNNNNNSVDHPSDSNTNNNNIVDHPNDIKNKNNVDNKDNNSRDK

[3] = biological target: T3, GFP-VRN5 (Arabidopsis thaliana) (UniProt Q9LHF5); assay: co-IP; GFP-VRN5 coexpressed with the HA-tagged catalytic or regulatory module of PRC2 (VRN2 split into N-lobe and C-lobe) in HEK293T; GFP-trap; anti-HA blot
T3 sequence: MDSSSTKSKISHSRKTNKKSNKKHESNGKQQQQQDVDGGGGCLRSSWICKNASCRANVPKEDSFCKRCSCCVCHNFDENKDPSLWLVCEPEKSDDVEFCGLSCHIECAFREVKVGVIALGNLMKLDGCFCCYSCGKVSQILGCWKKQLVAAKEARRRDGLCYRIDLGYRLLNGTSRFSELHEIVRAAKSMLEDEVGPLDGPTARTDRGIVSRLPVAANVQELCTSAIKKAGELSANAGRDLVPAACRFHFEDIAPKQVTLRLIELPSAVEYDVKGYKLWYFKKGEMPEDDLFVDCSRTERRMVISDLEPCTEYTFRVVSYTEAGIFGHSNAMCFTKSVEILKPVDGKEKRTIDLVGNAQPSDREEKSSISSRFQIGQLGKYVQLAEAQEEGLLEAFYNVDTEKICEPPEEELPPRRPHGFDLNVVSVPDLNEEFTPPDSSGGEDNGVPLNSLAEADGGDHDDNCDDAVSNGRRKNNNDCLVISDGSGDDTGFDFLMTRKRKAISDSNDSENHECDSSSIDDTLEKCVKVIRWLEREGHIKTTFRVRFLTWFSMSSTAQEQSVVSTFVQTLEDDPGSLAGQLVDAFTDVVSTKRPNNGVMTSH

[4] = biological target: T4, GFP-VEL1 (Arabidopsis thaliana) (UniProt Q9SUM4); assay: co-IP; GFP-tagged VEL protein (wt, mutant or chimera) coexpressed with all four HA-tagged PRC2 subunits (VRN2, SWN, FIE, MSI1) in HEK293T; GFP-trap 90 min at 4°C; lysis buffer 20 mM Tris pH 7.4, 200 mM NaCl, 10% glycerol, 0.2% Triton X-100; anti-HA blot
T4 sequence: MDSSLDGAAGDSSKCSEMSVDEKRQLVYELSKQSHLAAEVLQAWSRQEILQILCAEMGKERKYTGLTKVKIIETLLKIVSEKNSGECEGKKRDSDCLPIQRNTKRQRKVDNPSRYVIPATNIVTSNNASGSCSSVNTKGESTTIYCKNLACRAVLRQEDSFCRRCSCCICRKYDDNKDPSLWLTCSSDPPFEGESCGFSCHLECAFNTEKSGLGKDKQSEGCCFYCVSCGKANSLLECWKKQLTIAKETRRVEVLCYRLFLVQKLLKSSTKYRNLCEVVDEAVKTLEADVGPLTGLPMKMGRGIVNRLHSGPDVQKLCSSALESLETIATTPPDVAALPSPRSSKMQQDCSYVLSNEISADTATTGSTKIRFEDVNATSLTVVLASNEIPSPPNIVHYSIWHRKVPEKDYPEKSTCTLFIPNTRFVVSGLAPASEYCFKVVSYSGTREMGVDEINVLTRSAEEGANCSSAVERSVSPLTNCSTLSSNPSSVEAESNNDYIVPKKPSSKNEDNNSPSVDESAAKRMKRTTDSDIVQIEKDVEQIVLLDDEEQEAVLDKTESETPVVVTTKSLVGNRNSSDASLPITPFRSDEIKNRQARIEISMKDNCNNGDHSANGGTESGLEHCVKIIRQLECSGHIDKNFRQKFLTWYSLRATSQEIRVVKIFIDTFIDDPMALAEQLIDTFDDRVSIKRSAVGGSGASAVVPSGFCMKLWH

[5] = biological target: T3, GFP-VRN5 (Arabidopsis thaliana); assay: as above
[6] = biological target: VIN3-GFP (Arabidopsis thaliana) (UniProt Q9FIE3); assay: as above
[7] = biological target: T3, GFP-VRN5 (Arabidopsis thaliana); assay: co-IP; GFP-VRN5 coexpressed with all but one of the four HA-tagged PRC2 subunits in HEK293T; GFP-trap; anti-HA blot

- binding [1]: binds
Molecule: FLAG-dsRed-VIN3 (from UniProt Q9FIE3 1-620)

- binding [2]: binds
- binding [3]: binds
- binding [4]: binds
- binding [5]: binds
- binding [6]: binds weakly
Molecule: HA-tagged MSI1 (from UniProt O22467 1-424)

- binding [7]: binds
- binding [2]: binds
- binding [4]: binds weakly
- binding [5]: binds
- binding [6]: binds weakly
B1: HA-tagged SWN (protein, UniProt Q9ZSM8 1-856)
chain: MVTDDSNSSGRIKSHVDDDDDGEEEEDRLEGLENRLSELKRKIQGERVRSIKEKFEANRKKVDAHVSPFSSAASSRATAEDNGNSNMLSSRMRMPLCKLNGFSHGVGDRDYVPTKDVISASVKLPIAERIPPYTTWIFLDRNQRMAEDQSVVGRRQIYYEQHGGETLICSDSEEEPEPEEEKREFSEGEDSIIWLIGQEYGMGEEVQDALCQLLSVDASDILERYNELKLKDKQNTEEFSNSGFKLGISLEKGLGAALDSFDNLFCRRCLVFDCRLHGCSQPLISASEKQPYWSDYEGDRKPCSKHCYLQLKAVREVPETCSNFASKAEEKASEEECSKAVSSDVPHAAASGVSLQVEKTDIGIKNVDSSSGVEQEHGIRGKREVPILKDSNDLPNLSNKKQKTAASDTKMSFVNSVPSLDQALDSTKGDQGGTTDNKVNRDSEADAKEVGEPIPDNSVHDGGSSICQPHHGSGNGAIIIAEMSETSRPSTEWNPIEKDLYLKGVEIFGRNSCLIARNLLSGLKTCLDVSNYMRENEVSVFRRSSTPNLLLDDGRTDPGNDNDEVPPRTRLFRRKGKTRKLKYSTKSAGHPSVWKRIAGGKNQSCKQYTPCGCLSMCGKDCPCLTNETCCEKYCGCSKSCKNRFRGCHCAKSQCRSRQCPCFAAGRECDPDVCRNCWVSCGDGSLGEAPRRGEGQCGNMRLLLRQQQRILLGKSDVAGWGAFLKNSVSKNEYLGEYTGELISHHEADKRGKIYDRANSSFLFDLNDQYVLDAQRKGDKLKFANHSAKPNCYAKVMFVAGDHRVGIFANERIEASEELFYDYRYGPDQAPVWARKPEGSKKDDSAITHRRARKHQSH
